The results in this text go back to publication PMC9202185.

No constants are given. Whether binding was seen depends on the method and setting. In cells and extracts the contact can be indirect. Binding calls can cover weak binding; strength is not graded here.

This assay has as its target T1, Calcium-dependent cytosolic phospholipase A2 (mouse (endogenous in immortalized mouse astrocytes)) (UniProt P47713).
T1 sequence: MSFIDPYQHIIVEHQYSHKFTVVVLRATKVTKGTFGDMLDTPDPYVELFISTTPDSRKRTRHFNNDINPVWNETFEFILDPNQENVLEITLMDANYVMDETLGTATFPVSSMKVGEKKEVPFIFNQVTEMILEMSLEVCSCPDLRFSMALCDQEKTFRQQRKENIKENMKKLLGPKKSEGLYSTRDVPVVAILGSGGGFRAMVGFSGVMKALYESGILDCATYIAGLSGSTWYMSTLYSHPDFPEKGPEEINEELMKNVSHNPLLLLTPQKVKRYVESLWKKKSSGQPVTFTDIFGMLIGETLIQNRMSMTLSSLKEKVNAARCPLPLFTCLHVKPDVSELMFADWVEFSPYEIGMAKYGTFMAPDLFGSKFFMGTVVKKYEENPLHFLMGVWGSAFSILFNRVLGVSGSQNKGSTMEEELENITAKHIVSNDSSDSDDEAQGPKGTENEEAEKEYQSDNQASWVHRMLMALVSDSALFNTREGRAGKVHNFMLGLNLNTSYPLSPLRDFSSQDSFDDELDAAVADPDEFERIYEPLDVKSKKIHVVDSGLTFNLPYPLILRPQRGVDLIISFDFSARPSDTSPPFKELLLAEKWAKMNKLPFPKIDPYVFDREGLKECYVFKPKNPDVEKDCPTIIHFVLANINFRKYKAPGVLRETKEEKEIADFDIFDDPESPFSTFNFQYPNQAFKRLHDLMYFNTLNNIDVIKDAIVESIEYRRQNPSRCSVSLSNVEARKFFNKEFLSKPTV
Kind of assay: co-IP; lysate (RIPA with protease and phosphatase inhibitors) of immortalized ApoE4 astrocytes; immunoprecipitation with anti-cPLA2 antibody or species-matched IgG; cPLA2 and p38 detected by Western blot. Background: A western blot detects proteins with antibodies after separation by electrophoresis.

Consider p38 MAPK (enzyme), for which the binding result is “binds”.
